The supplement of paper PMC4604168 (melanoma cell lines)
The other results are listed elsewhere or left out. Single values are uncertain, as repeats are few or missing.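 Imaging used 1,536-well plates; nuclei positive for cleaved PARP by antibody were divided by total DNA-stained nuclei to yield the apoptosis fraction. Doses for screening kept most cells viable, and cell lines differ markedly in resting and induced cleaved-PARP levels.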

Key:
Test in all cases: cleaved PARP positive nuclei fraction relative to DMSO control; melanoma cells; higher = more apoptosis
Conditions in all cases: library dose: low library concentration; 72 h
MZ2-MEL = system: MZ2-MEL
MeWo = system: MeWo
RPMI7951 = system: RPMI7951
RVH-421 = system: RVH-421
SkMel28 = system: SkMel28
SkMel2 = system: SkMel2
SkMel30 = system: SkMel30
UACC62 = system: UACC62
WM115 = system: WM115
WM1716 = system: WM1716
WM1745 = system: WM1745
WM3526 = system: WM3526
WM3619 = system: WM3619
WM451Lu = system: WM451Lu

SMILES | cleaved PARP positive nuclei fraction (MZ2-MEL) [%] | cleaved PARP positive nuclei fraction (MeWo) [%] | cleaved PARP positive nuclei fraction (RPMI7951) [%] | cleaved PARP positive nuclei fraction (RVH-421) [%] | cleaved PARP positive nuclei fraction (SkMel28) [%] | cleaved PARP positive nuclei fraction (SkMel2) [%] | cleaved PARP positive nuclei fraction (SkMel30) [%] | cleaved PARP positive nuclei fraction (UACC62) [%] | cleaved PARP positive nuclei fraction (WM115) [%] | cleaved PARP positive nuclei fraction (WM1716) [%] | cleaved PARP positive nuclei fraction (WM1745) [%] | cleaved PARP positive nuclei fraction (WM3526) [%] | cleaved PARP positive nuclei fraction (WM3619) [%] | cleaved PARP positive nuclei fraction (WM451Lu) [%]
CS(=O)(=O)c1ccc(C(=O)Nc2ccc(Cl)c(-c3ccccn3)c2)c(Cl)c1 [vismodegib] + CN(c1ncccc1CNc1nc(Nc2ccc3c(c2)CC(=O)N3)ncc1C(F)(F)F)S(C)(=O)=O [PF562271] (first compound 1 µM, partner dose 0.08 µM) | 70 | 312 | 108 | 158 | 39.9 | 82 | 69 | 228 | 122 | 216 | 353 | 38.9 | 87.7 | 127
Cn1sc(=O)n(Cc2ccccc2)c1=O + CS(=O)(=O)c1ccc(C(=O)Nc2ccc(Cl)c(-c3ccccn3)c2)c(Cl)c1 [vismodegib] (first compound 0.4 µM, partner dose 1 µM) | 67.5 | 75.2 | 151 | 47.9 | 75.1 | 68.1 | 72.4 | 96 | 156 | 107 | 99.2 | 37.4 | 85.9 | 288
CN(c1ncccc1CNc1nc(Nc2ccc3c(c2)CC(=O)N3)ncc1C(F)(F)F)S(C)(=O)=O + C[C@@H](Oc1cc(-c2cnn(C3CCNCC3)c2)cnc1N)c1c(Cl)ccc(F)c1Cl [Crizotinib] (first compound 0.08 µM, partner dose 0.2 µM) | 242 | 135 | 85.7 | 104 | 43.6 | 269 | 79.8 | 133 | 110 | 37.7 | 113 | 82.6 | 81.1 | 52.1
CN(c1ncccc1CNc1nc(Nc2ccc3c(c2)CC(=O)N3)ncc1C(F)(F)F)S(C)(=O)=O + Nc1cccc2c1CN(C1CCC(=O)NC1=O)C2=O [lenalidomide] (first compound 0.08 µM, partner dose 1 µM) | 113 | 99.8 | 70.1 | 81.6 | 77.8 | 45.7 | 47.5 | 97.1 | 149 | 304 | 138 | 60.5 | 89.3 | 204
CN(c1ncccc1CNc1nc(Nc2ccc3c(c2)CC(=O)N3)ncc1C(F)(F)F)S(C)(=O)=O + O=C(O)[C@@H]1[O][Sb](=[O])([O][Sb]2(=[O])[O][C@H]([C@H](O)CO)[C@H](O)[C@H](C(=O)O)[O]2)[O][C@H]([C@H](O)CO)[C@@H]1O [stibogluconate] (first compound 0.08 µM, partner dose 2 µM) | 156 | 37.9 | 106 | 86.5 | 83.2 | 94.9 | 88.2 | 48.9 | 95.9 | 106 | 114 | 42.1 | 80.8 | 196
CS(=O)(=O)c1ccc(C(=O)Nc2ccc(Cl)c(-c3ccccn3)c2)c(Cl)c1 [vismodegib] + Clc1ccc(Nc2nnc(Cc3ccncc3)c3ccccc23)cc1 [vatalanib] (first compound 1 µM, partner dose 2 µM) | 99.3 | 119 | 223 | 172 | 74 | 133 | 62.7 | 201 | 113 | 166 | 121 | 72.9 | 95.7 | 91.6
COc1ccc(C2=N[C@@H](c3ccc(Cl)cc3)[C@@H](c3ccc(Cl)cc3)N2C(=O)N2CCNC(=O)C2)c(OC(C)C)c1 [Nutlin-3] + Nc1cccc2c1CN(C1CCC(=O)NC1=O)C2=O [lenalidomide] (first compound 0.1 µM, partner dose 1 µM) | 109 | 75.2 | 62.8 | 166 | 169 | 133 | 93.3 | 166 | 114 | 208 | 108 | 44.4 | 103 | 105
CN(c1ncccc1CNc1nc(Nc2ccc3c(c2)CC(=O)N3)ncc1C(F)(F)F)S(C)(=O)=O + Cn1c(Nc2ccc(C(F)(F)F)cc2)nc2cc(Oc3ccnc(-c4ncc(C(F)(F)F)[nH]4)c3)ccc21 [CHIR265] (first compound 0.08 µM, partner dose 0.08 µM) | 114 | 108 | 189 | 317 | 113 | 271 | 117 | 239 | 522 | 87.5 | 221 | 281 | 146 | 71.3
CC1(C)CCC(c2ccc(Cl)cc2)=C(CN2CCN(c3ccc(C(=O)NS(=O)(=O)c4ccc(N[C@H](CCN5CCOCC5)CSc5ccccc5)c(S(=O)(=O)C(F)(F)F)c4)cc3)CC2)C1 + CS(=O)(=O)c1ccc(C(=O)Nc2ccc(Cl)c(-c3ccccn3)c2)c(Cl)c1 [vismodegib] (first compound 0.4 µM, partner dose 1 µM) | 125 | 467 | 229 | 164 | 31.6 | 122 | 51.6 | 111 | 532 | 477 | 304 | 56 | 123 | 27.8
NC1(c2ccc(-c3nc4ccn5c(=O)[nH]nc5c4cc3-c3ccccc3)cc2)CCC1 + CC(C)C[C@H](NC(=O)[C@H](Cc1ccccc1)NC(=O)c1cnccn1)B(O)O [Bortezomib] (first compound 0.4 µM, partner dose 0.001 µM) | 122 | 24.2 | 141 | 195 | 65.2 | 81.3 | 277 | 226 | 272 | 236 | 112 | 56.2 | 167 | 194
NC(=O)c1ccc(N(C(N)=O)c2c(F)cccc2F)nc1-c1ccc(F)cc1F + CC(C)C[C@H](NC(=O)[C@H](Cc1ccccc1)NC(=O)c1cnccn1)B(O)O [Bortezomib] (first compound 0.4 µM, partner dose 0.001 µM) | 118 | 91.1 | 171 | 58 | 75.6 | 26.4 | 51.8 | 170 | 265 | 63.5 | 96.9 | 52 | 249 | 44.1
CC1(C)CCC(c2ccc(Cl)cc2)=C(CN2CCN(c3ccc(C(=O)NS(=O)(=O)c4ccc(N[C@H](CCN5CCOCC5)CSc5ccccc5)c(S(=O)(=O)C(F)(F)F)c4)cc3)CC2)C1 + CN(c1ncccc1CNc1nc(Nc2ccc3c(c2)CC(=O)N3)ncc1C(F)(F)F)S(C)(=O)=O [PF562271] (first compound 0.4 µM, partner dose 0.08 µM) | 108 | 388 | 215 | 308 | 119 | 103 | 191 | 110 | 311 | 230 | 1210 | 53.5 | 99.6 | 132
NC(=O)c1ccc(N(C(N)=O)c2c(F)cccc2F)nc1-c1ccc(F)cc1F + CCCS(=O)(=O)Nc1ccc(F)c(C(=O)c2c[nH]c3ncc(Cl)cc23)c1F [PLX4720] (first compound 0.4 µM, partner dose 0.08 µM) | 50.8 | 87.4 | 95.4 | 190 | 76.2 | 47 | 79.5 | 119 | 202 | 58.3 | 112 | 67.6 | 105 | 91.4
CN(c1ncccc1CNc1nc(Nc2ccc3c(c2)CC(=O)N3)ncc1C(F)(F)F)S(C)(=O)=O + CNC(=O)c1cc(Oc2ccc(NC(=O)Nc3ccc(Cl)c(C(F)(F)F)c3)cc2)ccn1 [sorafenib] (first compound 0.08 µM, partner dose 0.4 µM) | 60.9 | 79.5 | 181 | 69.3 | 102 | 33.4 | 26.9 | 48.4 | 222 | 140 | 87.3 | 40.4 | 203 | 274
CC(=O)O[C@@]12CO[C@@H]1C[C@H](O)[C@@]1(C)C(=O)[C@H](O)C3=C(C)[C@@H](OC(=O)[C@H](O)[C@@H](NC(=O)OC(C)(C)C)c4ccccc4)C[C@@](O)([C@@H](OC(=O)c4ccccc4)[C@H]21)C3(C)C [Docetaxel] + Cn1c(=O)n(-c2ccc(C(C)(C)C#N)cc2)c2c3cc(-c4cnc5ccccc5c4)ccc3ncc21 [NVP-BEZ235] (first compound 0.0001 µM, partner dose 0.004 µM) | 616 | 683 | 258 | 205 | 97.2 | 788 | 299 | 213 | 349 | 121 | 241 | 269 | 128 | 144
CS(=O)(=O)c1ccc(C(=O)Nc2ccc(Cl)c(-c3ccccn3)c2)c(Cl)c1 [vismodegib] + O=C(O)c1ccc2c(c1)nc(Nc1cccc(Cl)c1)c1ccncc12 [CX4945] (first compound 1 µM, partner dose 0.4 µM) | 124 | 119 | 85.2 | 80.8 | 65.7 | 116 | 50.6 | 48.3 | 62.3 | 34.7 | 93.4 | 77.4 | 94.4 | 43.1
C[C@@H](N)c1ccc(C(=O)Nc2ccnc3[nH]ccc23)cc1 + Cn1sc(=O)n(Cc2ccccc2)c1=O [TDZD-8] (first compound 0.4 µM, partner dose 0.4 µM) | 296 | 220 | 107 | 557 | 65.7 | 149 | 63.5 | 137 | 190 | 362 | 2680 | 55 | 97.3 | 35.9
CCN(CC)CCNC(=O)c1c(C)[nH]c(/C=C2\C(=O)Nc3ccc(F)cc32)c1C [sunitinib] + Nc1ncn([C@H]2C[C@H](O)[C@@H](CO)O2)c(=O)n1 [decitabine] (first compound 0.4 µM, partner dose 0.1 µM) | 88.2 | 169 | 103 | 161 | 96.8 | 67 | 114 | 110 | 252 | 74.4 | 111 | 47.7 | 81.3 | 75.8
CS(=O)(=O)c1ccc(C(=O)Nc2ccc(Cl)c(-c3ccccn3)c2)c(Cl)c1 [vismodegib] + Nc1ncn([C@H]2C[C@H](O)[C@@H](CO)O2)c(=O)n1 [decitabine] (first compound 1 µM, partner dose 0.1 µM) | 274 | 122 | 174 | 198 | 90.8 | 183 | 75.8 | 147 | 128 | 74 | 108 | 24.9 | 87.8 | 95.6

Whole records, quoted from the list. Values in the order: cleaved PARP positive nuclei fraction (MZ2-MEL) [%]	cleaved PARP positive nuclei fraction (MeWo) [%]	cleaved PARP positive nuclei fraction (RPMI7951) [%]	cleaved PARP positive nuclei fraction (RVH-421) [%]	cleaved PARP positive nuclei fraction (SkMel28) [%]	cleaved PARP positive nuclei fraction (SkMel2) [%]	cleaved PARP positive nuclei fraction (SkMel30) [%]	cleaved PARP positive nuclei fraction (UACC62) [%]	cleaved PARP positive nuclei fraction (WM115) [%]	cleaved PARP positive nuclei fraction (WM1716) [%]	cleaved PARP positive nuclei fraction (WM1745) [%]	cleaved PARP positive nuclei fraction (WM3526) [%]	cleaved PARP positive nuclei fraction (WM3619) [%]	cleaved PARP positive nuclei fraction (WM451Lu) [%]
NC1(c2ccc(-c3nc4ccn5c(=O)[nH]nc5c4cc3-c3ccccc3)cc2)CCC1 + CC(C)C[C@H](NC(=O)[C@H](Cc1ccccc1)NC(=O)c1cnccn1)B(O)O [Bortezomib] (first compound 0.4 µM, partner dose 0.001 µM) in the list: 122	24.2	141	195	65.2	81.3	277	226	272	236	112	56.2	167	194
CS(=O)(=O)c1ccc(C(=O)Nc2ccc(Cl)c(-c3ccccn3)c2)c(Cl)c1 [vismodegib] + Nc1ncn([C@H]2C[C@H](O)[C@@H](CO)O2)c(=O)n1 [decitabine] (first compound 1 µM, partner dose 0.1 µM) in the list: 274	122	174	198	90.8	183	75.8	147	128	74	108	24.9	87.8	95.6
